# In PubChem BioAssay AID493014 (National Center for Advancing Translational Sciences (NCATS), 2011):
# This is one part of the list. Shown are side measurements of this screen, not its main read-out; they come without a call. The list favours compounds with an active or inconclusive main result. Words in brackets tell the shape of the fitted curve; partial curves, single points and poor fits give uncertain potencies.
# Assay: qHTS Assay to Find Inhibitors of Chronic Active B-Cell Receptor Signaling
# Conditions: ABC-DLBCL IkBa-CBG/CBR reporter, luminescence ratio (green luciferase fused to IkBa over red control in TMD8 lymphoma cells), 4 h
# How it was run: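 TMD8 ABC-DLBCL cells carrying doxycycline-inducible green luciferase fused to IkappaBalpha plus unfused red luciferase were exposed to compounds (up to 46 uM) for 4 hrs at 37C. Activity came from the overlap-corrected green/red luminescence ratio.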
# [1] = measured here: CBR red luminescence, cell number
# [2] = measured here: IkBa-CBG green luminescence
structure (smiles),measurement,setting,value
Cc1ccccc1-n1c(SCc2csc(Nc3ccccc3)n2)nnc1-c1cccnc1,AC50,[1],"14.6 µM [falling, partial curve]"
O=C(CSc1ncn[nH]1)N1N=C2/C(=C/c3ccccc3)CCCC2C1c1ccccc1 (centres undefined),AC50,[1],"20.6 µM [falling, single point]"
Cc1cc(=O)oc2cc(OCC(=O)NC3(C#N)CCCCC3)c(Cl)cc12,AC50,[1],"5.17 µM [rising, full curve]"
O=C(N/N=C1\CCSC1)c1cc(Cl)ccc1O,AC50,[1],"0.398 µM [falling, full curve, poor fit]"
Cc1nc2sc(C(c3cccc(F)c3)N3CCC(O)CC3)c(O)n2n1 (centres undefined),AC50,[1],"17.8 µM [rising, partial curve, poor fit]"
CCSc1ccccc1C(=O)N1CCC2(CC1)CC(=O)c1ccccc1O2,AC50,[1],"1.03 µM [falling, partial curve, poor fit]"
COc1ccc(CC(=O)OCC(=O)c2ccc(OC)c(OC)c2)cc1,AC50,[1],"2.59 µM [rising, partial curve]"
O=C(Nc1ccccc1)c1ccn[nH]1,AC50,[1],"0.398 µM [falling, full curve]"
CCOc1ccccc1N(CC(=O)Nc1ccc(OC)cc1)S(=O)(=O)c1ccccc1,AC50,[1],"35.5 µM [falling, single point]"
NNC(=O)CNC(c1ccccc1)c1cc(Br)ccc1NC(=O)c1ccc(Br)cc1 (centres undefined),AC50,[1],"13 µM [falling, single point]"
O=C(N/N=C/c1ccc(Br)s1)c1cccnc1,AC50,[1],"15.8 µM [falling, partial curve]"
same,AC50,[2],"25.1 µM [falling, single point]"
Cc1ccc(NC(=O)NC(=O)CSc2nnc(-c3ccc(OC(F)F)cc3)n2N)c(C)c1,AC50,[1],"23.1 µM [rising, single point]"
CC(OC(=O)C1CSC2(c3ccc(F)cc3)CCC(=O)N12)C(=O)NC(N)=O (centres undefined),AC50,[1],"3.16 µM [falling, partial curve, poor fit]"
COC(=O)C1=C(C)N(Cc2ccccc2)C(=NCC2CC2)N[C@H]1c1ccc(Br)cc1,AC50,[1],"35.5 µM [falling, single point]"
same,AC50,[2],"20 µM [rising, single point]"
Cc1ccccc1-c1noc(-c2cccs2)n1,AC50,[1],"29.1 µM [rising, single point]"
O=C(/C=C/Nc1ccc(F)c(Cl)c1)c1ccco1,AC50,[1],"10.3 µM [falling, partial curve, poor fit]"
CCCCn1c(SCC(=O)NCc2ccco2)nc2cc(S(N)(=O)=O)ccc21,AC50,[1],"16.4 µM [falling, single point]"
O=C(CNC1CCCCC1)NN=C(c1ccccc1)c1ccccc1,AC50,[1],"20 µM [falling, single point]"
CCOC(=O)c1c(CSc2ccc(CC)cc2)oc2ccc(O)c(CN(C)C)c12,AC50,[1],"12.6 µM [falling, single point]"
O=S(=O)(/N=C(/Nc1cccc2ccccc12)c1ccccc1)c1cccs1,AC50,[1],"29.1 µM [falling, single point]"
Cc1cc(C(=O)N/N=C2\CC(=O)c3ccccc32)c(C)n1-c1ccccc1,AC50,[1],"5.62 µM [rising, single point]"
O=C1C(=O)N(CCN2CCOCC2)C(c2ccc(Cl)c(Cl)c2)/C1=C(/O)c1ccc2c(c1)OCO2 (centres undefined),AC50,[1],"22.4 µM [falling, single point]"
S=C(NC1CCCCCC1)NC1CCCC1,AC50,[1],"14.1 µM [rising, single point]"
NS(=O)(=O)c1ccc(CCNC(=O)c2ccc[nH]c2=S)cc1,AC50,[1],"8.91 µM [rising, partial curve]"
Cc1cccc(C(=O)Nc2nc3ccc(S(C)(=O)=O)cc3s2)c1,AC50,[1],"22.4 µM [falling, single point]"
Cn1c(SCc2cccc(F)c2)nnc1-c1ccncc1,AC50,[1],"0.447 µM [rising, full curve, poor fit]"
O=C(COc1ccccc1)Nc1ccc(OC(F)(F)C(F)F)c(NC(=O)COc2ccccc2)c1,AC50,[1],"14.6 µM [rising, single point]"
Cc1nc2c3cc(F)ccc3n(Cc3ccccc3F)c2s1,AC50,[1],"23.1 µM [rising, single point]"
CCN1C(=NCCc2cccs2)N[C@@H](CCc2ccccc2)[C@H](C(=O)NCCc2cccs2)[C@H]1C,AC50,[1],"35.5 µM [falling, single point]"
O=C(COC(=O)c1c(Cl)cccc1Cl)NCc1cccs1,AC50,[1],"2.59 µM [rising, full curve]"
O=C(Nc1cccc2ccccc12)c1ccc(F)cc1,AC50,[1],"10 µM [falling, partial curve, poor fit]"
Cc1ccsc1/C=N/N1CCOCC1,AC50,[1],"31.6 µM [rising, single point]"

# An excerpt from the list above, for reference:
structure (smiles),measurement,setting,value
CCSc1ccccc1C(=O)N1CCC2(CC1)CC(=O)c1ccccc1O2,AC50,[1],"1.03 µM [falling, partial curve, poor fit]"
COc1ccc(CC(=O)OCC(=O)c2ccc(OC)c(OC)c2)cc1,AC50,[1],"2.59 µM [rising, partial curve]"
